{
  "source": "paper PMC7782846",
  "binders": {"B1": {"name": "mutant Surf4 (K265A/K266A/K267A), mouse (protein, UniProt Q64310 1-269)", "chain": "MGQNDLMGTAEDFADQFLRVTKQYLPHVARLCLISTFLEDGIRMWFQWSEQRDYIDTTWSCGYLLASSFVFLNLLGQLTGCVLVLSRNFVQYACFGLFGIIALQTIAYSILWDLKFLMRNLALGGGLLLLLAESRSEGKSMFAGVPTMRESSPKQYMQLGGRVLLVLMFMTLLHFDASFFSIIQNIVGTALMILVAIGFKTKLAALTLVVWLFAINVYFNAFWTIPVYKPMHDFLKYDFFQTMSVIGGLLLVVALGPGGVSMDEAAAEW"}},
  "target": "T1, α-COP-FLAG (WT), mouse (mouse) (UniProt Q8CIE6)",
  "T1 sequence": "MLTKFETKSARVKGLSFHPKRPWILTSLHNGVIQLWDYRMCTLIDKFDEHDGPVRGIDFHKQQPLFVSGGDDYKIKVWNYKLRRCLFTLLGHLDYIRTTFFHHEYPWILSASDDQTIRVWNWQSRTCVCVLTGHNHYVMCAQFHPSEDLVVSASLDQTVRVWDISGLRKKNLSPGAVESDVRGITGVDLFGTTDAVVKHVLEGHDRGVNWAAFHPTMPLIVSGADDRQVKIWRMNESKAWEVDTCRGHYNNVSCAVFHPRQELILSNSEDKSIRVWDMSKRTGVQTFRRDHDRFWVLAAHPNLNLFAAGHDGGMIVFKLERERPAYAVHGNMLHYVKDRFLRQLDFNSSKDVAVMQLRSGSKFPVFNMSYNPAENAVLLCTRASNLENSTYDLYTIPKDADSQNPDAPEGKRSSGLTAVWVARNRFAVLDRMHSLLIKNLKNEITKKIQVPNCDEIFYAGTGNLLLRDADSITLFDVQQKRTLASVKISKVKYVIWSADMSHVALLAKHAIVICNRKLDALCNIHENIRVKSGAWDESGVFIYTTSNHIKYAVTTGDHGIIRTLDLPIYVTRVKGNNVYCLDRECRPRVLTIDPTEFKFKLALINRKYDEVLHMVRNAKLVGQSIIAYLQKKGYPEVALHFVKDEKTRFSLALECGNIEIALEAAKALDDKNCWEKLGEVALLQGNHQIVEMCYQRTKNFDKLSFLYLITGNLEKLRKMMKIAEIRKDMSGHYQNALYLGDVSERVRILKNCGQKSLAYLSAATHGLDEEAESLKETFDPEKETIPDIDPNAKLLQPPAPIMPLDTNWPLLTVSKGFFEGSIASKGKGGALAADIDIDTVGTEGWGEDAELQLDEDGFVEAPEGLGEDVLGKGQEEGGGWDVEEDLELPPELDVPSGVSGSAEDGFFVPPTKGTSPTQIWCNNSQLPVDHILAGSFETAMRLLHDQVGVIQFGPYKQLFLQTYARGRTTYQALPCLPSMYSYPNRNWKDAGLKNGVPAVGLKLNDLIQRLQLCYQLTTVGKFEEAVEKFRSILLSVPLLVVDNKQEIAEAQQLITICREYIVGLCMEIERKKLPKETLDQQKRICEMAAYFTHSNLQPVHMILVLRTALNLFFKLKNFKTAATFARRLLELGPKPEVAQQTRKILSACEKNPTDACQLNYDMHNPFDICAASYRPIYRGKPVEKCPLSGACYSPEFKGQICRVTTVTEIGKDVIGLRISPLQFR",
  "test": "co-IP; α-COP-FLAG immunoprecipitated with anti-FLAG from lysates of transfected HEK293T cells (1% CHAPS, 150 mM NaCl, pH 7.2), western blot",
  "note": "These are yes or no findings as the source states them, for the method shown. Binding seen in cells or lysates may run through a third protein. Some results given as binding are weak or reduced against the parent protein; the word gives no strength. Tags and fused reporters may be left off the sequences shown.",
  "data": [
    {"binder": "B1", "values": [
      {"measurement": "binding", "result": "binds"}
    ]}
  ]
}
